Drawing on patent publication US6777540 (dated 2004), this text covers binding for five molecules.

By UniProt entry, the sequences of proteins in these tests, tags left out. Where a name states a change or a piece, a line headed by the entry shows the natural chain unless it says otherwise. Residues count along the entry.
UniProt P48023, residues 130-281: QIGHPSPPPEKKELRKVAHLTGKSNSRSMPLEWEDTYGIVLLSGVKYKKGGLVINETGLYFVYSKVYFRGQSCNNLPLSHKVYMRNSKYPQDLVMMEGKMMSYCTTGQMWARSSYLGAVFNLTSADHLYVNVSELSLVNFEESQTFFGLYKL

Assay [1] has as its target soluble Fas ligand molecule (human Fas ligand released into the supernatant of COS cells transfected with human Fas ligand-BCMGSNeo, purified on NOK1 antibody) (human) (UniProt P48023). In words: ELISA, soluble Fas ligand coated at 50 ng/ml, detection with HRP anti-human Ig-Ckappa. In general terms: In an ELISA, binding on a coated surface is turned into a signal by an enzyme label.

The target in assay [2] is native Fas ligand (FLAG-tagged extracellular domain of human Fas ligand without amino acid substitution, secreted by COS cells) (human) (UniProt P48023). The assay can be described thus: ELISA, native Fas ligand supernatant coated on plate, twofold dilutions of antibody from 50 ug/ml.
The target is the same in assay [3]. The assay can be described thus: ELISA, native Fas ligand supernatant coated on plate, twofold dilutions of antibody from 3.57 ug/ml.
In assay [4] the target is soluble Fas ligand molecule (human Fas ligand released into the supernatant of COS cells transfected with human Fas ligand-BCMGSNeo, purified on NOK1 antibody) (human) (UniProt P48023). In words: ELISA, soluble Fas ligand coated on plate, purified antibody, anti-human Ig detection.
Assay [5] concerns the target native Fas ligand (FLAG-tagged extracellular domain of human Fas ligand without amino acid substitution, secreted by COS cells) (human) (UniProt P48023). In words: ELISA, native Fas ligand supernatant coated on plate, twofold dilutions of antibody from 1.86 ug/ml.
For assay [6] the target is unchanged. In words: ELISA, native Fas ligand supernatant coated on plate, twofold dilutions of antibody from 3.35 ug/ml.

Positions count from the first letter of the chain named. Results are given in words; binding and its absence hold for the method and conditions named. Some results given as binding are weak or reduced against the parent protein; the word gives no strength.

B1: chimeric NOK2 antibody (CNOK2) (antibody, V domains shown)
VH: QVHLQQSGAELVRPGTSVKMSCKAAGYTFTNYWIGWVKQRPGHGLEWIGYLYPGGLYTNYNEKFKGKATLTADTSSSTAYMQLSSLTSEDSAIYYCARYRDYDYAMDYWGQGTSVTVSS
VL: DVVLTQTPLSLPVNIGDQASISCKSTKSLLNSDGFTYLGWCLQKPGQSPQLLIYLVSNRFSGVPDRFSGSGSGTDFTLKISRVEAEDLGVYYCFQSNYLPLTFGSGTKLEIKR
For B1, the binding entry in assay [1] was “binds”.

B2: NOK2 antibody (mouse anti-Fas ligand monoclonal antibody of hybridoma NOK2, FERM BP-5045) (antibody, V domains shown)
VH: B1 VH
VL: B1 VL
notes: Mouse IgG, purified on protein G; kappa light chain; Those are derived from the cloned PCR product and may hold leader or primer residues; also called mouse NOK2 immunoglobulin; NOK2 immunoglobulin
Regarding B2, the binding result in assay [2] is listed as “binds”.

B3: RNOK201 (humanized NOK2 antibody, RNOK2VHver11 with RNOK2VLver1) (antibody, V domains shown)
VH: QVQLVQSGAEVKKPGASVKVSCKASGYTFTNYWIGWVKQAPGQGLEWIGYLYPGGLYTNYNEKFKGKATMTADTSTNTAYMELSSLRSEDTAVYYCARYRDYDYAMDYWGQGTLVTVSS
VL: DVVMTQTPSSLSASVGDRASISCKSTKSLLNSDGFTYLGWCQQKPGQSPQLLIYLVSNRFSGVPDRFSGSGSGTDFTLKISSLQPEDIATYYCFQSNYLPLTFGQGTKVEIKR
As for B3, the binding entry in assay [3] and in assay [4] was “binds” in each case.

B4: RNOK202 (humanized NOK2 antibody, RNOK2VHver11 with RNOK2VLver21) (antibody, V domains shown)
VH: B3 VH
VL: B1 VL with L4M, N14T, I15P, D17E, Q18P, L88V, S105Q
As for B4, the binding entry in assay [5] and in assay [4] was “binds” each time.

B5: RNOK203 (humanized NOK2 antibody, RNOK2VHver11 with RNOK2VLver22) (antibody, V domains shown)
VH: B3 VH
VL: B1 VL with L4M, N14T, I15L, D17Q, Q18P, L88V, S105Q
In the case of B5, the binding result in assay [4] and in assay [6] was “binds” in each case.
